The text below walks through data of the supplement of paper PMC12873370.

The test system of test [1] is MEPP (mouse ovarian epithelium Trp53/Pten KO). Nature of the test: cell viability relative to untreated (fraction); higher = less growth inhibition. The settings on record: 5 µM; 3 days.
Test [2] has as its system PREPP (mouse prostate epithelium Trp53/Pten KO). The test is described as above. The settings on record: 5 µM; 3 days.

Some of the results follow. Repeats are few or missing, and single values can be far off.

In the case of `Cn1cc(/C=C/C(=O)c2cccc(F)c2)cc1/C=C/C(=O)NO`, the cell viability in test [1] turned out to be 1; in test [2] it was 0.747.
For the compound `CN(C)CCCNC(=O)c1ccc(-c2cc(O)c3ncccc3c2)cc1`, the cell viability in test [1] was determined as 0.944; in test [2], 0.807.
For `O=C(C=Cc1ccccc1)NC(NC(=S)Nc1ccc(Cl)cc1)C(Cl)(Cl)Cl` (stereo not drawn), the cell viability in test [1] turned out to be 0.821; in test [2] it was 0.97.
As to `CCCCCCCc1ccc(CCc2cccc(O)c2C(=O)O)cc1`, the cell viability in test [1] came to 0.994; in test [2], 1.02.
`CC(C)(C)OC(=O)Nc1ccc(-c2cc(C(=O)NCCCCCCC(=O)NO)no2)cc1`: the cell viability in test [1] turned out to be 0.432; in test [2], 0.667.
For `CN(C)CCCn1cc(C2=C(c3c[nH]c4ccccc34)C(=O)NC2=O)c2ccccc21`, in that order: 0.808 and 0.783.
On to `CN(C)C(=N)NC(=N)N`, for which the cell viability in test [1] worked out at 0.991; in test [2] it was 0.971.
For `Cn1ncnc1[C@H]1c2n[nH]c(=O)c3cc(F)cc(c23)N[C@@H]1c1ccc(F)cc1`, in that order: 0.721 and 0.754.
For `COc1cc2c(cc1-c1c(C)noc1C)ncc1[nH]c(=O)n([C@H](C)c3ccccn3)c12`, in that order: 0.859 and 0.54.
For `CCCc1cc(C)[nH]c(=O)c1CNC(=O)c1cc(-c2ccnc(N3CCN(C)CC3)c2)cc2c1cnn2C(C)C` the same measures were 0.902 and 0.806.
Regarding `N[C@H]1C[C@@H]1c1ccc(-c2cccc(O)c2)cc1`, the cell viability in test [1] was 1.11; in test [2], 0.907.
Take `CS(=O)(=O)c1ccc(-c2nnc(/C=C/c3nnc(-c4ccc(C#N)cc4)o3)n2-c2ccccc2Cl)nc1`: the cell viability in test [1] was determined as 0.871; in test [2], 0.932.
For the compound `NC(=O)c1ccc(I)c([N+](=O)[O-])c1`, the results for the cell viability in test [1] and in test [2] were 1.13 and 0.992, respectively.
As for `Cn1cc(C2=C(c3cn(CCCSC(=N)N)c4ccccc34)C(=O)NC2=O)c2ccccc21`, the cell viability in test [1] was 0.435; in test [2], 0.772.
